At least one peptide structure holds a part that was inferred or is arguable (an end, a ring closure or a residue). Residues, ends and D or L forms follow the SMILES beside them. *: point of attachment. MeOSuc = COC(=O)CCC(=O)*; CH2Cl = ClC*
System: PC-12 cells
Experiment: KCN-treated PC-12 cell survival by trypan blue exclusion
Type: cell-based, rat
Settings: 0.5 mM KCN with elastase inhibitor III

In the case of `COC(=O)CCC(=O)N[C@@H](C)C(=O)N[C@@H](C)C(=O)N1CCC[C@H]1C(=O)N[C@H](C(=O)CCl)C(C)C` [elastase inhibitor III, MeOSuc-Ala-Ala-Pro-Val-CMK] (MeOSuc-AAPV-CH2Cl), the “cell survival by trypan blue exclusion” value is reported as “protective effect”.
